Drawing on patent US20110150888A1, this text covers binding for one molecule.

This assay concerns the target T1, cynomolgus monkey hepcidin (cynomolgus monkey) (UniProt A7XEI3).
T1 sequence (peptide): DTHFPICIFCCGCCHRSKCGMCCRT
Kind of assay: competition ELISA. In general terms: ELISA stands for enzyme-linked immunosorbent assay.

Results are given in words; binding and its absence hold for the method and conditions named. Some entries that bind do so weakly or less than the wild type.

B1: antibody 18B11 (antibody, V domains shown)
VH: QVQLQQWGAGPLKPSETLSLTCAVYNGSFSGYYWSWIRQPPGKGLEWIGDINHSGNTKYNPSLKSRVTISVDTSKNQFSLKLSSVTAADTAVYYCARGDFWSGFDWFDPWGQGTLVTVSS
VL: QSALTQPASVSGSPGQSITISCTGTSSNVGSYNLVSWYQQHPGKAPKLMISEVSKRPSGLSNRFSGSKSGNTASLTISGLQAEDEADYYCCSYAGSSTLIFGGGTKLTVL
On to B1, for which the binding entry is “binds”.
